Measured values: PMC8206096
No constants are given. Whether binding was seen depends on the method and setting. Binding seen in cells or lysates may run through a third protein. Some binding calls cover weakened binding; strength is not graded here. For some of these results: Sequences can lack the tags named with a protein.

Amino acid sequences for entries named in this document (tags omitted).
UniProt Q02248: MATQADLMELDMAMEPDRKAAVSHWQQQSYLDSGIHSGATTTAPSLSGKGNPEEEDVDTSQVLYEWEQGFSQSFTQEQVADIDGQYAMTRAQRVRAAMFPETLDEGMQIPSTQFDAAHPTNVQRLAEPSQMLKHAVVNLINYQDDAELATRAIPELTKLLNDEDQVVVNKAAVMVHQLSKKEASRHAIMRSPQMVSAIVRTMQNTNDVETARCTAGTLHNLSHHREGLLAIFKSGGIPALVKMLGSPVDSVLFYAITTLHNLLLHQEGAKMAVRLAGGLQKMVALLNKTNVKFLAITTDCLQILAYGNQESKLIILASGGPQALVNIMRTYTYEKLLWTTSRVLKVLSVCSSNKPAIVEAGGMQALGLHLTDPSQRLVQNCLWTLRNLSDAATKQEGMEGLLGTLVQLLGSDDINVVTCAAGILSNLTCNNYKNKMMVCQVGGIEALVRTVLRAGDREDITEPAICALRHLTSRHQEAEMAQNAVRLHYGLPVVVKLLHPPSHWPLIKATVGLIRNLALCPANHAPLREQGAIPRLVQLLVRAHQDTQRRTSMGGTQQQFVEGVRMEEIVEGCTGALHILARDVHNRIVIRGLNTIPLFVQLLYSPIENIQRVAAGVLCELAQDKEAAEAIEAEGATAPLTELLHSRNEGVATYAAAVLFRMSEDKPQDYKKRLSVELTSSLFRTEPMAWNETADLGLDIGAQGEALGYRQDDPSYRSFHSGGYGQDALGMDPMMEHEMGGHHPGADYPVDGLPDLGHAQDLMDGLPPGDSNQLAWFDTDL

T1: LIM and SH3 domain protein 1 (Lasp1) (mouse (endogenous in FLS)) (UniProt Q61792)
T1 sequence: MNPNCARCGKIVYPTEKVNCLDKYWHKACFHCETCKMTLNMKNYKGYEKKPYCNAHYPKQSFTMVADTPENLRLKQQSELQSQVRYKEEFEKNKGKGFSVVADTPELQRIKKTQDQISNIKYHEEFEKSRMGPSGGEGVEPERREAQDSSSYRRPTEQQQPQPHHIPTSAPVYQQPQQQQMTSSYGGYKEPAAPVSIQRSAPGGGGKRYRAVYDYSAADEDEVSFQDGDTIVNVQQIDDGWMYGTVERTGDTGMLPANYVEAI


How the values were obtained:
[1] = biological target: T1, LIM and SH3 domain protein 1 (Lasp1) (mouse (endogenous in FLS)); experiment: co-IP; Lasp1 antibody on protein G Dynabeads, lysates of wt FLS, overnight at 4 °C; immunoblot for Cadherin-11, p120-Catenin and β-Catenin; Lasp1−/− FLS as control
[2] = biological target: β-Catenin (mouse (endogenous in FLS and MEFs)) (UniProt Q02248); experiment: co-IP; β-Catenin antibody on protein G Dynabeads, lysates of wt FLS, overnight at 4 °C; immunoblot for Lasp1, Cadherin-11, p120-Catenin and β-Catenin; Lasp1−/− FLS as control
[3] = biological target: β-Catenin (mouse (endogenous in FLS and MEFs)) (UniProt Q02248); experiment: co-IP; β-Catenin antibody on protein G Dynabeads, NP-40 lysates of Lasp1−/− MEFs transfected with GFP-tagged Lasp1 constructs (48 h); immunoblot with an anti-GFP antibody

| binding [2] | Molecule | further results |
| --- | --- | --- |
| – | β-Catenin (from UniProt Q02248 1-781) | binding [1]: binds |
| binds | p120-Catenin (protein, UniProt P30999 1-938) MDDSEVESTASILASVKEQEAQFEKLTRALEEERRHVSAQLERVRVSPQDANSLMANGTLTRRHQNGRFVGDADLERQKFSDLKLNGPQDHNHLLYSTIPRMQEPGQIVETYTEEDPEGAMSVVSVETTDDGTTRRTETTVKKVVKTMTTRTVQPVPMGPDGLPVDASAVSNNYIQTLGRDFRKNGNGGPGPYVGQAGTATLPRNFHYPPDGYGRHYEDGYPGGSDNYGSLSRVTRIEERYRPSMEGYRAPSRQDVYGPQPQVRVGGSSVDLHRFHPEPYGLEDDQRSMGYDDLDYGMMSDYGTARRTGTPSDPRRRLRSYEDMIGEEVPPDQYYWAPLAQHERGSLASLDSLRKGMPPPSNWRQPELPEVIAMLGFRLDAVKSNAAAYLQHLCYRNDKVKTDVRKLKGIPILVGLLDHPKKEVHLGACGALKNISFGRDQDNKIAIKNCDGVPALVRLLRKARDMDLTEVITGTLWNLSSHDSIKMEIVDHALHALTDEVIIPHSGWEREPNEDCKPRHIEWESVLTNTAGCLRNVSSERSEARRKLRECDGLVDALIFIVQAEIGQKDSDSKLVENCVCLLRNLSYQVHREIPQAERYQEALPTVANSTGPHAASCFGAKKGKDEWFSRGKKPTEDPANDTVDFPKRTSPARGYELLFQPEVVRIYISLLKESKTPAILEASAGAIQNLCAGRWTYGRYIRSALRQEKALSAIAELLTSEHERVVKAASGALRNLAVDARNKELIGKHAIPNLVKNLPGGQQNSSWNFSEDTVVSILNTINEVIAENLEAAKKLRETQGIEKLVLINKSGNRSEKEVRAAALVLQTIWGYKELRKPLEKEGWKKSDFQVNLNNASRSQSSHSYDDSTLPLIDRNQKSDKKPDREEIPMSNMGSNTKSLDNNYSTLNERGDHNRTLDRSGDLGDMEPLKGAPLMQKI | – |
| binds | LIM and SH3 domain protein 1 (Lasp1) (protein, UniProt Q61792 1-263) MNPNCARCGKIVYPTEKVNCLDKYWHKACFHCETCKMTLNMKNYKGYEKKPYCNAHYPKQSFTMVADTPENLRLKQQSELQSQVRYKEEFEKNKGKGFSVVADTPELQRIKKTQDQISNIKYHEEFEKSRMGPSGGEGVEPERREAQDSSSYRRPTEQQQPQPHHIPTSAPVYQQPQQQQMTSSYGGYKEPAAPVSIQRSAPGGGGKRYRAVYDYSAADEDEVSFQDGDTIVNVQQIDDGWMYGTVERTGDTGMLPANYVEAI | – |
| – | GFP-tagged Lasp1 full length (FL) construct (protein, UniProt Q61792 1-263) MNPNCARCGKIVYPTEKVNCLDKYWHKACFHCETCKMTLNMKNYKGYEKKPYCNAHYPKQSFTMVADTPENLRLKQQSELQSQVRYKEEFEKNKGKGFSVVADTPELQRIKKTQDQISNIKYHEEFEKSRMGPSGGEGVEPERREAQDSSSYRRPTEQQQPQPHHIPTSAPVYQQPQQQQMTSSYGGYKEPAAPVSIQRSAPGGGGKRYRAVYDYSAADEDEVSFQDGDTIVNVQQIDDGWMYGTVERTGDTGMLPANYVEAI | binding [3]: binds |
